Laboratory results: PubChem BioAssay AID720574 (Broad Institute, 2013)
Among all 96,000 compounds or so, about 140 (0.15%) were called active. This list was built around the results that the source calls inconclusive (neither active nor inactive); the mix of calls is not that of the screen.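 Rule for the calls: active = mean replicate inhibition above about 25%, with at least 55% of replicates also reaching it (limit read from the data, passing the limit was not always enough); inconclusive = only one of those two conditions met; inactive = neither condition met.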

Sequences of proteins named here, by UniProt entry; tags and fusion partners are left off. Residues count along the entry.
UniProt Q9H3R0, 2-372 limits assumed: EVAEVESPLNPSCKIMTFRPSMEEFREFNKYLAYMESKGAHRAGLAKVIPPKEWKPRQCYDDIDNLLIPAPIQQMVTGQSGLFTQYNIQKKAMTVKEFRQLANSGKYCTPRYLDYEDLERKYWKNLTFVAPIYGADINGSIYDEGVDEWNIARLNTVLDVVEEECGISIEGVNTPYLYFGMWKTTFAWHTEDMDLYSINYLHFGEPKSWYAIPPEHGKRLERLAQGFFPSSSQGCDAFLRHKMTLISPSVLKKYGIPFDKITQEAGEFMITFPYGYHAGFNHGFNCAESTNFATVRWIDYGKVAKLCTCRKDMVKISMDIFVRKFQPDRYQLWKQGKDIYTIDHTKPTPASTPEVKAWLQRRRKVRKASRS

Biological target: Lysine-specific demethylase 4C (Homo sapiens) (UniProt Q9H3R0)
Assay: inhibitors of GASC-1 (KDM4C) histone demethylase, primary screen, biochemical, single concentration HTS (AID 720574)
Settings: GST-KDM4C 2-372, H3K9me3 peptide, LANCE TR-FRET; at 12.5 µM; hits give high values
Method in brief: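 System: N-terminal GST-fused human GASC-1 (KDM4C) fragment, residues 2-372; amount: enzyme final amount 10 nM; incubation: reaction 30 min RT, detection step 1 h RT; medium: HEPES buffer, pH 7.5, plus ascorbate; technique: LANCE TR-FRET, Eu antibody, ULight-streptavidin, EDTA, ex 340 nm, em 618/671 nm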

SMILES | inhibition
O=C(Cc1ccccc1)N1CCCCN2[C@@H](CO)[C@H](c3ccc(C#Cc4ccccc4)cc3)[C@@H]2C1 | inconclusive: 30.1%
